The supplement of paper PMC12823440, “Inhibitors supercharge kinase turnover through native proteolytic circuits” (Nature, 2025)
Counter-ions that a name gives are not always drawn. The list shows a part of the results. The calls rarely recur for the same compound in another form.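 In K562 cells expressing nanoluciferase-fused kinases, luminescence was recorded at 4 h intervals between 2 and 18 h, normalized as percent of control with DMSO at 100% and a positive control at 0%. A significant (2 sigma) signal drop marks a time point as decreased. The authors' rule for a hit is not shown and takes in more than the number of time points.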

Protein sequences, listed by entry. Tags and fused reporters are not part of them. Lines headed by an entry give the natural chain unless they say otherwise; changes in a name come on top.
UniProt O15530: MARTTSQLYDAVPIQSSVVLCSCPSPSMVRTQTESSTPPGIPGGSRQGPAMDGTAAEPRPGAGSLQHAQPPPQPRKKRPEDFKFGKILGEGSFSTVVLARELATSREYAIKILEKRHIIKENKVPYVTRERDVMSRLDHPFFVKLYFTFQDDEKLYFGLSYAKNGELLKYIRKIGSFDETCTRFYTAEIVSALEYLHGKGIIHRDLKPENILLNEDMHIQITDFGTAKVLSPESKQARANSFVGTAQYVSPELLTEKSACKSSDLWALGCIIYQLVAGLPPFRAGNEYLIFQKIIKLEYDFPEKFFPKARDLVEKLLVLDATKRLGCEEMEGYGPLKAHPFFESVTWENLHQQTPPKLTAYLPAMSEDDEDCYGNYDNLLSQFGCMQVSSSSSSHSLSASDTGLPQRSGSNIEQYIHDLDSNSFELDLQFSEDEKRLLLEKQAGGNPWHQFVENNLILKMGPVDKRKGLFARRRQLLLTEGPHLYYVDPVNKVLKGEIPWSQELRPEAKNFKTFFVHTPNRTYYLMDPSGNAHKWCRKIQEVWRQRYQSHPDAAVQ
UniProt P42356, whole entry, looked up: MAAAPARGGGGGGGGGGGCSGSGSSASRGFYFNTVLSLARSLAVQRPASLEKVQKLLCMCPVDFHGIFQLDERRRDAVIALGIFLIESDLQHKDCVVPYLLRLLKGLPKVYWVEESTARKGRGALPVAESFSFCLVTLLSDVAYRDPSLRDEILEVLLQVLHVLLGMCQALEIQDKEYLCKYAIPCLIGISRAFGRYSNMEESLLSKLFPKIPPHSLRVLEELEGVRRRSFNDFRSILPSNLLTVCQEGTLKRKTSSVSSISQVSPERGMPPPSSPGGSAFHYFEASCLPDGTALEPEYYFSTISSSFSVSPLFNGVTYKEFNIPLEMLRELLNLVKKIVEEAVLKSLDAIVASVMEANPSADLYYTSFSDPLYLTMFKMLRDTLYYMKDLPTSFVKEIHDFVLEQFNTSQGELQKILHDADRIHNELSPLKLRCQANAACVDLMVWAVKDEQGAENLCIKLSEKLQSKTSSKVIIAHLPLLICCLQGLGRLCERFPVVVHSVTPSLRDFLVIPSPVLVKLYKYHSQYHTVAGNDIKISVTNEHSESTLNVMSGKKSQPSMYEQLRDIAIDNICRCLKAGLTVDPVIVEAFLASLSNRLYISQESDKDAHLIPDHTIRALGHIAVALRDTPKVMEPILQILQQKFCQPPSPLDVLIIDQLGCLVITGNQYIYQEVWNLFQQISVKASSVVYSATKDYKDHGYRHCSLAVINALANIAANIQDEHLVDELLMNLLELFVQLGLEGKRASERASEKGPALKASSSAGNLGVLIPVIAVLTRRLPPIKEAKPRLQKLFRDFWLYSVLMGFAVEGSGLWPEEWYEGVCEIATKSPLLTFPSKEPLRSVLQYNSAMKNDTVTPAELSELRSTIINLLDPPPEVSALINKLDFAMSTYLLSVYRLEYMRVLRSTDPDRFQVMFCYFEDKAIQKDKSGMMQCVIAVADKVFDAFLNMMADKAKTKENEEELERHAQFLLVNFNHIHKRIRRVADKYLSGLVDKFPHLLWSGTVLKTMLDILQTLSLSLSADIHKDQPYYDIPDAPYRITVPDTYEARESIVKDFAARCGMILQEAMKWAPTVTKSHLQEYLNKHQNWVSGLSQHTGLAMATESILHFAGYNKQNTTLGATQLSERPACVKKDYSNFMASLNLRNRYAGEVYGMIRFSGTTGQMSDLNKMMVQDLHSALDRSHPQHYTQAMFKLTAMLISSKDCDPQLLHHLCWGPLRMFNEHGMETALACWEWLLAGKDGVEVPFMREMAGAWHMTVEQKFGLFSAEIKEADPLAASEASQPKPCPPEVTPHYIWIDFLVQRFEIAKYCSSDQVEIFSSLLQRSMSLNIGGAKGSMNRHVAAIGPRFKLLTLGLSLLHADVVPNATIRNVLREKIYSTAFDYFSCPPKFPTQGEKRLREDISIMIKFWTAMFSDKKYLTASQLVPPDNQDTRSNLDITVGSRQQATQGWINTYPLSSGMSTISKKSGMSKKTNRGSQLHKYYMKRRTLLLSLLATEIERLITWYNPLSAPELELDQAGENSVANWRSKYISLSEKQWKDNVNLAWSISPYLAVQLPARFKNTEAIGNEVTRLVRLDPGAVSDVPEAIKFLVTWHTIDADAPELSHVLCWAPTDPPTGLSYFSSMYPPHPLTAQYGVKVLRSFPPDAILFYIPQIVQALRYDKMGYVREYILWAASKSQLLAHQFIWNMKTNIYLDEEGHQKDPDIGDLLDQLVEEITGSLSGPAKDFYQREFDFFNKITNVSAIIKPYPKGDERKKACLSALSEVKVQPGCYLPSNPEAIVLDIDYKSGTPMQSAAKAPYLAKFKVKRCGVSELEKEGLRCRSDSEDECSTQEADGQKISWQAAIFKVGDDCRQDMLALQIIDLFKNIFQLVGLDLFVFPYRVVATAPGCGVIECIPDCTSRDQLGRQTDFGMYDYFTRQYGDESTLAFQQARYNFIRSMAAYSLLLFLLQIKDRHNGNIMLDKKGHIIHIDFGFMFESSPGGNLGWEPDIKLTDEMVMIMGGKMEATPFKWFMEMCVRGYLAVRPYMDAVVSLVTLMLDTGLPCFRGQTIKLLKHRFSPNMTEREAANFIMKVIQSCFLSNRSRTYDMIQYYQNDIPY
UniProt Q9UBF8: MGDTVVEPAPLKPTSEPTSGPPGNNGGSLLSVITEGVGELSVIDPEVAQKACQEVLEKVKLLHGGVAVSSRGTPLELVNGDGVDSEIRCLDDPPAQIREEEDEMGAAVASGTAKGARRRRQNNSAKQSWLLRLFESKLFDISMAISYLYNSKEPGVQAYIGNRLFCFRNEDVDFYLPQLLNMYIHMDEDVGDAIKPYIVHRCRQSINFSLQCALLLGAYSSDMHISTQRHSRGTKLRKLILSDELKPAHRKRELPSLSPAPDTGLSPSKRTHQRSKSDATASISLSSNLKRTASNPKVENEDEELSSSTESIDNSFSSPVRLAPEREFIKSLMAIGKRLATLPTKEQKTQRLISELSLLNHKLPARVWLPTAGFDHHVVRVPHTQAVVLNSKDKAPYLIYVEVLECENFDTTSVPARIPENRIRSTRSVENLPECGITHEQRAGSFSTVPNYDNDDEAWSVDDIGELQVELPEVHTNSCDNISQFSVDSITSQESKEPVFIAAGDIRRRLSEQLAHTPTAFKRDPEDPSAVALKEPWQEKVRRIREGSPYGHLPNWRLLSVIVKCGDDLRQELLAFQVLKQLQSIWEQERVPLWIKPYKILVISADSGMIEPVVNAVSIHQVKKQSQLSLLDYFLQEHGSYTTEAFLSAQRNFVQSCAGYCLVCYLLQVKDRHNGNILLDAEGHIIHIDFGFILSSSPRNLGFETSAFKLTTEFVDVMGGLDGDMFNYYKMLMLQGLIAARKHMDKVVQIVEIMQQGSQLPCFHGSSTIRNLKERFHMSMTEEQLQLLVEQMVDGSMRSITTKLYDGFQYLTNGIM
UniProt P53350, whole entry: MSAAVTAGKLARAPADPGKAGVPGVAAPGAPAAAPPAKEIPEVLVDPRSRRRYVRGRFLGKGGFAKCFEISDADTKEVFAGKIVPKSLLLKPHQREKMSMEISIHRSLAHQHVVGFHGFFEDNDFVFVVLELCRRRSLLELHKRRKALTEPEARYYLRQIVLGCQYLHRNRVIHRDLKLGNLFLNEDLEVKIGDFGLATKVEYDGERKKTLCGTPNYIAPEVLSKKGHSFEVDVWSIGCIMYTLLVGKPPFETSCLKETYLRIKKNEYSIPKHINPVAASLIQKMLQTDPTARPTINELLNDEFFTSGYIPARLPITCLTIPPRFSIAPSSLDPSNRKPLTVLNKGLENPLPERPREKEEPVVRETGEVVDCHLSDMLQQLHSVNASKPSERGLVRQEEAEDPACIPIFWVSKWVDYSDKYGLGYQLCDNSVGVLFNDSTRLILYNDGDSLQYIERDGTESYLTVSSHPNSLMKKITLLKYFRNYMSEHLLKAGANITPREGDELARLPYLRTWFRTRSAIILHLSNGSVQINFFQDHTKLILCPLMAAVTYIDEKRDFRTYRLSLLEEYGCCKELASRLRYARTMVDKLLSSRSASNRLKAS
UniProt Q13131: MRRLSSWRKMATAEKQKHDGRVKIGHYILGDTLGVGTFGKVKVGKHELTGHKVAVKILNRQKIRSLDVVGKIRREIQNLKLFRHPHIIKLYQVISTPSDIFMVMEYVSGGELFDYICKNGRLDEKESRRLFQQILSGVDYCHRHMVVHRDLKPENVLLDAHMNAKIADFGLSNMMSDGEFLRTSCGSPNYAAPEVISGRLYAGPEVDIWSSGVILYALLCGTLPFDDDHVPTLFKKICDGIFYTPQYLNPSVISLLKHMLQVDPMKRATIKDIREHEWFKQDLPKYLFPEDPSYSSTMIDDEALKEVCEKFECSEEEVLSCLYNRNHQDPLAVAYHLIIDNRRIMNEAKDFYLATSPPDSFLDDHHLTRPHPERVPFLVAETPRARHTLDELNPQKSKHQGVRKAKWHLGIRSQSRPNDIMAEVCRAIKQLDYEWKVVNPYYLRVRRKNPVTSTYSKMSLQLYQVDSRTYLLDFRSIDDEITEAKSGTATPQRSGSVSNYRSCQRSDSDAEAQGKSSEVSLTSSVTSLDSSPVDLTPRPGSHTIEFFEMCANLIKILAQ
UniProt Q14289, whole entry, looked up: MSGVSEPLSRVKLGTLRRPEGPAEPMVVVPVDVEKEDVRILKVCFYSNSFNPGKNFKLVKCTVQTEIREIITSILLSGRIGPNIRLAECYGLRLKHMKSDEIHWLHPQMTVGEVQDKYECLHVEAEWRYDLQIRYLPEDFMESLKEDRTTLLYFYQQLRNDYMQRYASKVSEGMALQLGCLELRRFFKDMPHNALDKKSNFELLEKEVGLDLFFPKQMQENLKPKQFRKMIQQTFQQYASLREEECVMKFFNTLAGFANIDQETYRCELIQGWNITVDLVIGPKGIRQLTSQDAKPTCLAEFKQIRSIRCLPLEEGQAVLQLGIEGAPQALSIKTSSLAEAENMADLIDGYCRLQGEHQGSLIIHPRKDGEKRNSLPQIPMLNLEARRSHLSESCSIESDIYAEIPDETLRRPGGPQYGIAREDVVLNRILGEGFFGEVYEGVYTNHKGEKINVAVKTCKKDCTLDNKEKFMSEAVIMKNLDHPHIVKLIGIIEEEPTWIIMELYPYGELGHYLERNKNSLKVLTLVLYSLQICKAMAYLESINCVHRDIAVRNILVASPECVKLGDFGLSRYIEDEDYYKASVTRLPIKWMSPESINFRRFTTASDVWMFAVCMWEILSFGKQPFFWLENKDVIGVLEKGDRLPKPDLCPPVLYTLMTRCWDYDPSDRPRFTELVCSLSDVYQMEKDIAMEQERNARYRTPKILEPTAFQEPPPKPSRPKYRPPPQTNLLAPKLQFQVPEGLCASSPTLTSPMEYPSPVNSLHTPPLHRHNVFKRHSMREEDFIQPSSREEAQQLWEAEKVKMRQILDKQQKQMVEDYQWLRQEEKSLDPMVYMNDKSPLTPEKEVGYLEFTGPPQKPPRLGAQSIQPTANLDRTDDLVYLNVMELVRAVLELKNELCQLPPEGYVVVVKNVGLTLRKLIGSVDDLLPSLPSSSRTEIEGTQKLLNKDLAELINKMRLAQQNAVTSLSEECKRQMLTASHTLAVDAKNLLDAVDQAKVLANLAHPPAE

What was measured:
Assay in all cases: kinase-Nluc reporter destabilization hit call (1 = scored as downregulated) (binary); higher = compound decreases kinase abundance
Conditions in all cases: K562; 2-18 h
[1] = molecular target: PDPK1 (UniProt O15530)
[2] = molecular target: PIK4CA (UniProt P42356)
[3] = molecular target: PIK4CB (UniProt Q9UBF8)
[4] = molecular target: PLK1 (UniProt P53350)
[5] = molecular target: PRKAA1 (UniProt Q13131)
[6] = molecular target: PRKCA (UniProt P17252)
[7] = molecular target: PTK2 (UniProt Q05397)
[8] = molecular target: PTK2B (UniProt Q14289)
[9] = molecular target: RAF1 (UniProt P04049)
[10] = molecular target: RAF1_S257L (clone: RAF1_mut) (UniProt P04049)

Measured: kinase-Nluc reporter destabilization hit call

O=C1/C(=C\c2ccc(Cl)cc2)C=C(c2ccccc2)N1c1ccc(O)cc1 (2.5 µM)
inactive: [1] 0 | [2] 0 | [3] 0 | [4] 0 | [5] 0 | [6] 0 | [7] 0 | [8] 0 | [9] 0 | [10] 0

NC1=NCCN1CC(=O)O [Cyclocreatine] (10 µM)
inactive: [1] 0 | [2] 0 | [3] 0 | [4] 0 | [5] 0 | [6] 0 | [7] 0 | [8] 0 | [9] 0 | [10] 0

Cc1ccc(NC(=O)c2ccc(CN(CCN(C)C)C(=O)c3cccnc3)cc2)cc1Nc1nccc(-c2cccnc2)n1 [PDGFRα kinase inhibitor 1] (10 µM)
inactive: [1] 0 | [2] 0 | [3] 0 | [4] 0 | [5] 0 | [6] 0 | [7] 0 | [8] 0 | [9] 0 | [10] 0

CC(C)S(=O)(=O)c1ccc2nccc(Nc3ccc4scnc4c3)c2c1 (10 µM)
inactive: [1] 0 | [2] 0 | [3] 0 | [4] 0 | [5] 0 | [6] 0 | [7] 0 | [8] 0 | [9] 0 | [10] 0

C[C@@H]1O[C@@H](O[C@@H]2[C@@H](O)[C@H](OCCc3ccc(O)c(O)c3)O[C@H](CO)[C@H]2OC(=O)/C=C/c2ccc(O)c(O)c2)[C@H](O)[C@H](O)[C@H]1O [Verbascoside] (10 µM)
inactive: [1] 0 | [2] 0 | [3] 0 | [4] 0 | [5] 0 | [6] 0 | [7] 0 | [8] 0 | [9] 0 | [10] 0

CC/C(=N\NC(=O)c1ccnc(NCCCN2CCOCC2)c1)c1ccc(Cl)cc1O (2.5 µM)
inactive: [1] 0 | [2] 0 | [3] 0 | [4] 0 | [5] 0 | [6] 0 | [7] 0 | [8] 0 | [9] 0 | [10] 0

C=CCc1ccc(O)c(-c2ccc(O)c(CC=C)c2)c1 [Honokiol] (10 µM)
inactive: [1] 0 | [2] 0 | [3] 0 | [4] 0 | [5] 0 | [6] 0 | [7] 0 | [8] 0 | [9] 0 | [10] 0

C[C@@H]1CN(c2cc(-c3n[nH]c4ccc(OC5(C)CC5)cc34)ncn2)C[C@H](C)O1 (10 µM)
inactive: [1] 0 | [2] 0 | [3] 0 | [4] 0 | [5] 0 | [6] 0 | [7] 0 | [8] 0 | [9] 0 | [10] 0

Cn1ncc2cc(-c3cnc(N)c(Cl)c3N3CCC4(CCNC4=O)CC3)ccc21 (10 µM)
inactive: [1] 0 | [2] 0 | [3] 0 | [4] 0 | [5] 0 | [6] 0 | [7] 0 | [8] 0 | [9] 0 | [10] 0

CC(C)(C[C@H](N)C(=O)O)C(F)F [NV-5138 (hydrochloride)] (10 µM)
inactive: [1] 0 | [2] 0 | [3] 0 | [4] 0 | [5] 0 | [6] 0 | [7] 0 | [8] 0 | [9] 0 | [10] 0

CN1CC[C@@H](c2c(O)cc(O)c3c(=O)cc(-c4ccc(C(F)(F)F)cc4Cl)oc23)[C@@H]1CO [Voruciclib (hydrochloride)] (10 µM)
inactive: [1] 0 | [2] 0 | [3] 0 | [4] 0 | [5] 0 | [6] 0 | [7] 0 | [8] 0 | [9] 0 | [10] 0

CC(C)(O)[C@H]1CC[C@H](Nc2ccc3ncc(-c4cccc(C(F)(F)F)c4)n3n2)CC1 (10 µM)
inactive: [1] 0 | [2] 0 | [3] 0 | [4] 0 | [5] 0 | [6] 0 | [7] 0 | [8] 0 | [9] 0 | [10] 0

NC(=O)c1cnc2[nH]ccc2c1N[C@@H]1[C@@H]2CC3C[C@H]1C[C@@](O)(C3)C2 [Peficitinib] (10 µM)
inactive: [1] 0 | [2] 0 | [3] 0 | [4] 0 | [5] 0 | [6] 0 | [7] 0 | [8] 0 | [9] 0 | [10] 0

Cc1ccc(NC(=O)c2ccnc(C(F)(F)F)c2)cc1-c1cc(OCCO)nc(N2CCOCC2)c1 (10 µM)
inactive: [1] 0 | [2] 0 | [3] 0 | [4] 0 | [5] 0 | [6] 0 | [7] 0 | [8] 0 | [9] 0 | [10] 0

COc1cc2ncnc(Nc3ccc(F)c(Cl)c3)c2cc1NC(=O)/C=C/CN1CCCCC1 [Dacomitinib] (10 µM)
inactive: [1] 0 | [2] 0 | [3] 0 | [4] 0 | [5] 0 | [6] 0 | [7] 0 | [8] 0 | [9] 0 | [10] 0

COCCNc1cc(NC(=O)N2CCCc3cc(CN4CCN(C)CC4=O)c(C=O)nc32)ncc1C#N [Roblitinib] (10 µM)
inactive: [1] 0 | [2] 0 | [3] 0 | [4] 0 | [5] 0 | [6] 0 | [7] 0 | [8] 0 | [9] 0 | [10] 0

CN(c1ccc(NC(=O)Nc2ccc(OC(F)(F)F)cc2)cc1)c1ccnc(Nc2cccc(S(N)(=O)=O)c2)n1 (2.5 µM)
inactive: [1] 0 | [2] 0 | [3] 0 | [4] 0 | [5] 0 | [6] 0 | [7] 0 | [8] 0 | [9] 0 | [10] 0

Cn1cc2cc(C(F)(F)c3nnc4ccc(-c5cnn(C6CC6)c5)nn34)c(F)cc2n1 [Bozitinib] (10 µM)
inactive: [1] 0 | [2] 0 | [3] 0 | [4] 0 | [5] 0 | [6] 0 | [7] 0 | [8] 0 | [9] 0 | [10] 0

CC(C)=CCc1c(-c2ccc(O)cc2O)oc2c3c(cc(O)c2c1=O)OC(C)(C)C=C3 [Morusin] (2.5 µM)
inactive: [1] 0 | [2] 0 | [3] 0 | [4] 0 | [5] 0 | [6] 0 | [7] 0 | [8] 0 | [9] 0 | [10] 0

O=C(NC1CCOCC1)c1ccc(-c2cc(-c3c[nH]nc3-c3ccccn3)ccn2)cc1 (10 µM)
inactive: [1] 0 | [2] 0 | [3] 0 | [4] 0 | [5] 0 | [6] 0 | [7] 0 | [8] 0 | [9] 0 | [10] 0

CN1C(=O)[C@@H](NC(=O)c2n[nH]c(Cc3ccccc3)n2)COc2ccccc21 (10 µM)
inactive: [1] 0 | [2] 0 | [3] 0 | [4] 0 | [5] 0 | [6] 0 | [7] 0 | [8] 0 | [9] 0 | [10] 0

COc1c(Nc2cc(C)[nH]n2)nc(Sc2ccc(S(=O)(=O)Cc3cccc([N+](=O)[O-])c3F)cc2F)nc1N1CCCCC1 [Centrinone-B] (2.5 µM)
inactive: [1] 0 | [2] 0 | [3] 0 | [4] 0 | [5] 0 | [6] 0 | [7] 0 | [8] 0 | [9] 0 | [10] 0

O=C(O)c1cc(=O)c2c(OCC(O)COc3cccc4oc(C(=O)O)cc(=O)c34)cccc2o1 [Cromolyn (sodium)] (10 µM)
inactive: [1] 0 | [2] 0 | [3] 0 | [4] 0 | [5] 0 | [6] 0 | [7] 0 | [8] 0 | [9] 0 | [10] 0

Eight compounds out of the list, sorted by heavy-atom count, ascending:
C=CCc1ccc(O)c(-c2ccc(O)c(CC=C)c2)c1 [Honokiol] (10 µM)
inactive: [1] 0 | [2] 0 | [3] 0 | [4] 0 | [5] 0 | [6] 0 | [7] 0 | [8] 0 | [9] 0 | [10] 0

NC(=O)c1cnc2[nH]ccc2c1N[C@@H]1[C@@H]2CC3C[C@H]1C[C@@](O)(C3)C2 [Peficitinib] (10 µM)
inactive: [1] 0 | [2] 0 | [3] 0 | [4] 0 | [5] 0 | [6] 0 | [7] 0 | [8] 0 | [9] 0 | [10] 0

CC(C)S(=O)(=O)c1ccc2nccc(Nc3ccc4scnc4c3)c2c1 (10 µM)
inactive: [1] 0 | [2] 0 | [3] 0 | [4] 0 | [5] 0 | [6] 0 | [7] 0 | [8] 0 | [9] 0 | [10] 0

Cn1ncc2cc(-c3cnc(N)c(Cl)c3N3CCC4(CCNC4=O)CC3)ccc21 (10 µM)
inactive: [1] 0 | [2] 0 | [3] 0 | [4] 0 | [5] 0 | [6] 0 | [7] 0 | [8] 0 | [9] 0 | [10] 0

CC(C)(O)[C@H]1CC[C@H](Nc2ccc3ncc(-c4cccc(C(F)(F)F)c4)n3n2)CC1 (10 µM)
inactive: [1] 0 | [2] 0 | [3] 0 | [4] 0 | [5] 0 | [6] 0 | [7] 0 | [8] 0 | [9] 0 | [10] 0

CN1CC[C@@H](c2c(O)cc(O)c3c(=O)cc(-c4ccc(C(F)(F)F)cc4Cl)oc23)[C@@H]1CO [Voruciclib (hydrochloride)] (10 µM)
inactive: [1] 0 | [2] 0 | [3] 0 | [4] 0 | [5] 0 | [6] 0 | [7] 0 | [8] 0 | [9] 0 | [10] 0

O=C(O)c1cc(=O)c2c(OCC(O)COc3cccc4oc(C(=O)O)cc(=O)c34)cccc2o1 [Cromolyn (sodium)] (10 µM)
inactive: [1] 0 | [2] 0 | [3] 0 | [4] 0 | [5] 0 | [6] 0 | [7] 0 | [8] 0 | [9] 0 | [10] 0

COCCNc1cc(NC(=O)N2CCCc3cc(CN4CCN(C)CC4=O)c(C=O)nc32)ncc1C#N [Roblitinib] (10 µM)
inactive: [1] 0 | [2] 0 | [3] 0 | [4] 0 | [5] 0 | [6] 0 | [7] 0 | [8] 0 | [9] 0 | [10] 0

Next part

COc1ccc2cc3[n+](cc2c1OC)CCc1cc(O)c(O)cc1-3 [Demethyleneberberine] (10 µM)
inactive: [1] 0 | [2] 0 | [3] 0 | [4] 0 | [5] 0 | [6] 0 | [7] 0 | [8] 0 | [9] 0 | [10] 0

O[C@@H]1CO[C@H]2[C@@H]1OC[C@H]2Oc1nc2nc(-c3ccc(-c4ccccc4)cc3)c(Cl)cc2[nH]1 (10 µM)
inactive: [1] 0 | [2] 0 | [3] 0 | [4] 0 | [5] 0 | [6] 0 | [7] 0 | [8] 0 | [9] 0 | [10] 0

Cn1cc(C2=C(c3cccc(N)c3)C(=O)NC2=O)c2ccccc21 (10 µM)
inactive: [1] 0 | [2] 0 | [3] 0 | [4] 0 | [5] 0 | [6] 0 | [7] 0 | [8] 0 | [9] 0 | [10] 0

C=CC(=O)Nc1cc(-n2c(=O)ccc3cnc4ccc(-c5ccc(NS(C)(=O)=O)cc5)cc4c32)ccc1C (10 µM)
inactive: [1] 0 | [2] 0 | [3] 0 | [4] 0 | [5] 0 | [6] 0 | [7] 0 | [8] 0 | [9] 0 | [10] 0

CC(C)N1CCN(c2ccc(Nc3ncc4cc5n(c4n3)C3(CCCCC3)CNC5=O)nc2)CC1 [Lerociclib (dihydrochloride)] (2 µM)
inactive: [1] 0 | [2] 0 | [3] 0 | [4] 0 | [5] 0 | [6] 0 | [7] 0 | [8] 0 | [9] 0 | [10] 0

O=C(O)c1cc(N(Cc2ccccc2O)Cc2ccccc2O)ccc1O [Lavendustin B] (10 µM)
inactive: [1] 0 | [2] 0 | [3] 0 | [4] 0 | [5] 0 | [6] 0 | [7] 0 | [8] 0 | [9] 0 | [10] 0
